Laboratory results: PMC9855983
Results are given in words; binding and its absence hold for the method and conditions named. In cells and extracts the contact can be indirect. Some binding calls cover weakened binding; strength is not graded here. Sequences can lack the tags named with a protein.

Sequences of proteins named here, by UniProt entry; tags and fusion partners are left off. Residues count along the entry.
UniProt Q66HD0, residues 22-804: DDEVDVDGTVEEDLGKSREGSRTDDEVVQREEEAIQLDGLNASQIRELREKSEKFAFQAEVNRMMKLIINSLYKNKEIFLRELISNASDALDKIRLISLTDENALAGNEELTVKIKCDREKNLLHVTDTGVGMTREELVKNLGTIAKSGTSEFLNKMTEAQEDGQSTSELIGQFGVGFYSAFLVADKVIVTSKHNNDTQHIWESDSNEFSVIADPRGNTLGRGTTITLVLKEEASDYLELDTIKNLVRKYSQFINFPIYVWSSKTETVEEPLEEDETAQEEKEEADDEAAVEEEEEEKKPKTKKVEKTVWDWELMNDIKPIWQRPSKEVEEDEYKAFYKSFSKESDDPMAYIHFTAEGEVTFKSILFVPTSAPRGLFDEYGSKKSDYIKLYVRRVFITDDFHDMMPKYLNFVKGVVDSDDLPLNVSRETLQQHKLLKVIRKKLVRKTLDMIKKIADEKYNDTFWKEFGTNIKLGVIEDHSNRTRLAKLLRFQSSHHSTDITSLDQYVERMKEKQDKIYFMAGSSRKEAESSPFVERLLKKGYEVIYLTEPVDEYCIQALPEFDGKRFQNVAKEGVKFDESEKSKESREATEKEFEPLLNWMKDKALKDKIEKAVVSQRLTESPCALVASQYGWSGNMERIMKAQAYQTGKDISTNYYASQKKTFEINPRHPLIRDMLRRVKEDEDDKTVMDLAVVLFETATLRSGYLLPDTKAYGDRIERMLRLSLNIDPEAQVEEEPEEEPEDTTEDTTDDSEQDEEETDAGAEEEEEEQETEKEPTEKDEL

Biological target: T1, myc-tagged FKBP2 (UniProt P26885)
T1 sequence: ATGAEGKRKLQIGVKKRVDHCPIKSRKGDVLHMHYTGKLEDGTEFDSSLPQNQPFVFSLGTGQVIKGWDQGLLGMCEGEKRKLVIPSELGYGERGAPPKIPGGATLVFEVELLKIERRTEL
Experiment: co-IP; myc-tagged FKBP2 expressed in INS-1E cells (48 h), precipitated with myc-trap beads, SDS-PAGE and Western blot; in one experiment lysates pretreated for 10 min with 100 mM 2-mercaptoethanol (more proinsulin bound)

binding: binds
Substance: GRP94, endogenous in INS-1E cells (from UniProt Q66HD0 22-804)
